Experimental data taken from patent publication US10113968B2, “Specific detection and quantification of cardiolipin and isolated mitochondria by positively charged AIE fluorogens and method of manufacturing thereof” (priority 2013, dated 2018).

Test: Fluorescence response of dye to CL-containing (TOCL/DOPC) and CL-free (DOPC) LUVs
Settings: [dye]=10 μM, λex=350 nm
Procedure: CL-containing vesicles are composed of TOCL/DOPC (1:1 molar ratio), and CL-free vesicles are composed of pure DOPC, respectively, in a 25 mM HEPES buffer at pH 7.4. [dye]=10 μM; [lipid]total=22 μM; λex=350 nm.
FIG. 3A is a plot of the fluorescence enhancement (I/I0−1) of TTAPE-Me at 480 nm with CL-containing and CL-free vesicles.
FIG. 3B is the linear region of the I/I0−1 value versus CL concentration. [dye]=10 μM; λex=350 nm.
FIG. 4B is a plot of the fluorescence enhancement at 480 nm versus CL content. [dye]=10 μM; [lipid]total=22 μM; λex=350 nm.
CL-containing and CL-free vesicles are composed of TOCL/DOPC (1:1 molar ratio) and pure DOPC, respectively, in a 25 mM HEPES buffer at pH 7.4. [dye]=10 μM; [lipid]total=22 μM; λex=350 nm.
The fluorescence enhancement (I/I0−1) of TTAPE-Me at 480 nm is in a linear fashion in the CL concentration of 0-10 μM (FIG. 3B), which lies in the physiological range of CL in mitochondrial membrane. Linear detection of CL can also be obtained with the varying content of TOCL (2-50% TOCL) in the vesicles (FIG. 4A-4B). The results imply that flexible TTAPE-Me to CL ratio is allowed in the detection and quantification of CL. In contrast, conventional NAO requires strict 2:1 ratio of NAO/CL for quantitative measurement. Moreover, the detection of CL can be done immediately upon mixing the vesicles with the probe without any extra treatment. […]

## C[N+](C)(C)CCOc1ccc(C(=C(c2ccc(OCC[N+](C)(C)C)cc2)c2ccc(OCC[N+](C)(C)C)cc2)c2ccc(OCC[N+](C)(C)C)cc2)cc1.[Br-].[Br-].[Br-].[Br-] [TTAPE-Me, 1,1,2,2-tetrakis[4-(2-trimethylammonio-ethoxy)phenyl]ethene tetrabromide]
[lipid]total=22 μM
  TOCL content of vesicles giving linear detection of CL: 2-50 % TOCL
  CL concentration range with linear fluorescence enhancement (I/I0−1) at 480 nm: 0 to 10 µM
